The results in this text go back to publication PMC8914384.

Sequences of proteins named here, by UniProt entry; tags and fusion partners are left off.
UniProt Q9Y4A5: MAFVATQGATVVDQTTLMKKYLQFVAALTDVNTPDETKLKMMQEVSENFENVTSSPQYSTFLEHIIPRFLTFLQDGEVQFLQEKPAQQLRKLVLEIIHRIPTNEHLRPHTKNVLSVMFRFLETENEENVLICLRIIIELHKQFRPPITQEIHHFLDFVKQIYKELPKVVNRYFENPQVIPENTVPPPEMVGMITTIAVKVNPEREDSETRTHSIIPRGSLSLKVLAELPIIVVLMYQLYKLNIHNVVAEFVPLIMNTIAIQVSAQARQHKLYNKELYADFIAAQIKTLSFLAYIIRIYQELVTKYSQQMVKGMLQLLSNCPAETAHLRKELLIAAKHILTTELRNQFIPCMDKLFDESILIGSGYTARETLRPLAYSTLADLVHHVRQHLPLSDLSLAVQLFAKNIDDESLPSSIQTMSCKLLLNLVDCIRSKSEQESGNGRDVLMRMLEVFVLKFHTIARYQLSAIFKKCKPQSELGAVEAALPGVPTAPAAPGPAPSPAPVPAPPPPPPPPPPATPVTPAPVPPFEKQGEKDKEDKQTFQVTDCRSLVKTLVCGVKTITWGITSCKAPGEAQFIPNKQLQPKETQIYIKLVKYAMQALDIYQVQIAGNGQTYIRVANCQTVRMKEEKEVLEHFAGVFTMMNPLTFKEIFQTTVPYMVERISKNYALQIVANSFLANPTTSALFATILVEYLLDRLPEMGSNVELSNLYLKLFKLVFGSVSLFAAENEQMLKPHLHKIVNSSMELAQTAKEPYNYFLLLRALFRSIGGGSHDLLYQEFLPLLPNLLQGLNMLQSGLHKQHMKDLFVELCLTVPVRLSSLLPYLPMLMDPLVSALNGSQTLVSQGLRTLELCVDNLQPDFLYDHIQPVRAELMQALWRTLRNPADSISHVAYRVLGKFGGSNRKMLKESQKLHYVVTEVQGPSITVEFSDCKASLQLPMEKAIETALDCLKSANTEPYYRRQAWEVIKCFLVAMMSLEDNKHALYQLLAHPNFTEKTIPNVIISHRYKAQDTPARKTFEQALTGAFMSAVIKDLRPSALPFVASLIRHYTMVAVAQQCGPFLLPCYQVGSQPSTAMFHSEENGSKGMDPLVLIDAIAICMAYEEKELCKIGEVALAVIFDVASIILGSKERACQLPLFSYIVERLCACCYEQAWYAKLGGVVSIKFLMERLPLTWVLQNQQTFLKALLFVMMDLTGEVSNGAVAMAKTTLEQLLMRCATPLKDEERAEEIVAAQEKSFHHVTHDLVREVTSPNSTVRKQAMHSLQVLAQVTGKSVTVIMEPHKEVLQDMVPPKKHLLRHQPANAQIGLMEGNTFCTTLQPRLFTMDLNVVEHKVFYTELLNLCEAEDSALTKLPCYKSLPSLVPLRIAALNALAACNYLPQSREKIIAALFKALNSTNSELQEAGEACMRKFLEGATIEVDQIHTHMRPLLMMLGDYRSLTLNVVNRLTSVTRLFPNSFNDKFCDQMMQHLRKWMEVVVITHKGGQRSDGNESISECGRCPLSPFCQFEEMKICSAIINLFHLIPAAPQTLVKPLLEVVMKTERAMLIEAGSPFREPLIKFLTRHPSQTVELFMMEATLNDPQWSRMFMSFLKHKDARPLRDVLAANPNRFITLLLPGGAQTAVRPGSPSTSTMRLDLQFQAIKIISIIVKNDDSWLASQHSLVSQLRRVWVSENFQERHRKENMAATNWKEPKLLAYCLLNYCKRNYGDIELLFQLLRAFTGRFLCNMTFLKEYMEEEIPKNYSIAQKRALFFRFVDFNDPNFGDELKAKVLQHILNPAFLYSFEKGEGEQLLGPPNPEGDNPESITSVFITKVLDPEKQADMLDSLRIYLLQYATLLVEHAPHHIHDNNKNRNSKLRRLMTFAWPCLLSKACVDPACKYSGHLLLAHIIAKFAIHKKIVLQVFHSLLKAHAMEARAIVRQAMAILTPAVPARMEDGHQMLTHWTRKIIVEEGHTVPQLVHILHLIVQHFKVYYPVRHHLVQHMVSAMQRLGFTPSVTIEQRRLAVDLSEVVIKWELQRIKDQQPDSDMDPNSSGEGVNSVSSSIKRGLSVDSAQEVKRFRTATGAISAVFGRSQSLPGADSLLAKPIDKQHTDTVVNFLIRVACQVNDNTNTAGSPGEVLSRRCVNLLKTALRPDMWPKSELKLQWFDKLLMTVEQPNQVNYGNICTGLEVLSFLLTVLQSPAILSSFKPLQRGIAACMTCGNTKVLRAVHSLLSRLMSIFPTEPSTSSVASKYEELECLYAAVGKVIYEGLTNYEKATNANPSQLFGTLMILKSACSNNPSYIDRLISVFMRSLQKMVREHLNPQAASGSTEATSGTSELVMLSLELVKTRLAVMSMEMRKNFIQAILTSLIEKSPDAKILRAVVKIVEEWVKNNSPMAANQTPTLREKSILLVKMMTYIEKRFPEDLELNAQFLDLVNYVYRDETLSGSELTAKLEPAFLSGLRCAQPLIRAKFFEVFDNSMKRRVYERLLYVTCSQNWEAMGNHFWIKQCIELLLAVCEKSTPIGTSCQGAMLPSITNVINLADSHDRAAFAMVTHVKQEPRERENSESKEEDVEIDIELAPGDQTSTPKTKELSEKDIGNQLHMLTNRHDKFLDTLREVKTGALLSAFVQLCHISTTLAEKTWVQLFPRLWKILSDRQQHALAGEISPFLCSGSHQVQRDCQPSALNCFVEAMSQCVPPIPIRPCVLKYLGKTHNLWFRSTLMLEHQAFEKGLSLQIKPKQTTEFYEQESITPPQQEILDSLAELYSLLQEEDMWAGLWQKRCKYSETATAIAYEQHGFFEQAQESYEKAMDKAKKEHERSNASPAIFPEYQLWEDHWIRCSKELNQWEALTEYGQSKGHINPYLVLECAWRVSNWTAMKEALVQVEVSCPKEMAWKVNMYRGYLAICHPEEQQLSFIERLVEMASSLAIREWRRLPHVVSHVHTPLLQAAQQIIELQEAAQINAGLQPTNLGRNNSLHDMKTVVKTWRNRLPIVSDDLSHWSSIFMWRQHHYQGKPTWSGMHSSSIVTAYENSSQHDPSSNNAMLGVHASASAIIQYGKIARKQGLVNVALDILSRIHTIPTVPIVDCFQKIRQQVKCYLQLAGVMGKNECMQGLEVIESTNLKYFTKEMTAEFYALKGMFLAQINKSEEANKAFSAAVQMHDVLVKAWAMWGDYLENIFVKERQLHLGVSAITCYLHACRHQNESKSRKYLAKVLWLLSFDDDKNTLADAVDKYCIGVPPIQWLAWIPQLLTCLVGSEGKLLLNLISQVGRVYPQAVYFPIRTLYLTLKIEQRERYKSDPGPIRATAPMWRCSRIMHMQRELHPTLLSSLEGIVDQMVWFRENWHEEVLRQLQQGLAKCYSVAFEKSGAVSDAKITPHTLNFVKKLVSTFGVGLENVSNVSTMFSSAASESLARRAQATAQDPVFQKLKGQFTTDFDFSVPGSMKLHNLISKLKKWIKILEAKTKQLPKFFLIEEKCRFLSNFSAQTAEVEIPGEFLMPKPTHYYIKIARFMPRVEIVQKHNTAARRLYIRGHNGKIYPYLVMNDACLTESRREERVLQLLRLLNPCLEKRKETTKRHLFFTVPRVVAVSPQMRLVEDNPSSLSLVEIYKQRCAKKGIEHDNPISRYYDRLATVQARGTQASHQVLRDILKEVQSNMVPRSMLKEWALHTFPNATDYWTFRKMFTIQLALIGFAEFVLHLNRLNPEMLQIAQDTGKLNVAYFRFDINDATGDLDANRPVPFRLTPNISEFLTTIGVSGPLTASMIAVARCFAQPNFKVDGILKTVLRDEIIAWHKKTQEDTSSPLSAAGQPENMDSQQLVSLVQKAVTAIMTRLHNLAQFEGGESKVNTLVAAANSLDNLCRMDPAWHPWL
UniProt O43524: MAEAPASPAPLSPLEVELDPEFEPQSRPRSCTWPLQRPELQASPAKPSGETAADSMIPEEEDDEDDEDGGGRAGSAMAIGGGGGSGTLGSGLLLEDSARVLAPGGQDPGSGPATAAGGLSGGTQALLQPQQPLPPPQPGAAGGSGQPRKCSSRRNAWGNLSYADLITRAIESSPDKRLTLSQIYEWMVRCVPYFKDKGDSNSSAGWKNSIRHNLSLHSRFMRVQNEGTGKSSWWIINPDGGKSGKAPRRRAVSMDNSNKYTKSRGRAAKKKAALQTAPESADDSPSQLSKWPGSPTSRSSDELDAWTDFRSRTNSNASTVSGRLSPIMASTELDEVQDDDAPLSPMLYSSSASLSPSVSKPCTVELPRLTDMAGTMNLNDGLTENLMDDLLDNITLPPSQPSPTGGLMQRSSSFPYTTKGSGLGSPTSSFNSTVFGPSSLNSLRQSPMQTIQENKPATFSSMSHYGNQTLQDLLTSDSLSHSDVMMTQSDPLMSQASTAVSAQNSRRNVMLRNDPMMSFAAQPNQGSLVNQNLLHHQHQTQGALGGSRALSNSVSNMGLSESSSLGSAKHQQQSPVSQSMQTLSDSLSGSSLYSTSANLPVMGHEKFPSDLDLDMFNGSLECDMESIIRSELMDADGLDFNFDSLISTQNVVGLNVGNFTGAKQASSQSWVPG

The assay deals with FLAG.TRRAP (FLAG-tagged TRRAP) (human) (UniProt Q9Y4A5). As to the kind of experiment: co-IP; α-FLAG IP (anti-FLAG M2 magnetic beads) of FLAG.TRRAP from lysates of HEK293 overexpressing WT HA.FoxO3; immunoblot. A general note: A western blot detects proteins with antibodies after separation by electrophoresis.

Results are given in words; binding and its absence hold for the method and conditions named. In cells and extracts the contact can be indirect. Some entries that bind do so weakly or less than the wild type.

In the case of “HA.FoxO3 wt (WT HA.FoxO3 with functional PKB phosphorylation sites) (from UniProt O43524 1-673)”, the binding entry is given as “binds”.
